Assay results: patent US6995138B2 (priority 2002, dated 2006)

Assay: general procedure: peptide synthesis; adipic acid bis-HOAT ester, collidine
Conditions: late stage modification step, TFA salt

29-N-(2-Aminoethyl)aminomethyl Vancomycin Tetra-TFA Salt
crude HPLC purity: 78%
